{"source": "PubChem BioAssay AID1508588 | Peter MacCallum Cancer Centre, 2020", "screen": "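Genome-wide search for knock-downs that heighten vemurafenib action in melanoma cells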 (primary screen)", "system": "human WM266.4 melanoma cells (BRAF V600 mutant)", "knock-down reagent": "siRNA pool against human genes, 40 nM", "timing": "96 h from transfection to read-out", "challenge": "vemurafenib 300 nM (about IC25), added 48 h after transfection, for 48 h; comparison arm got DMSO vehicle only", "detection": "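Cell gain (DAPI nuclei at end minus before drug, mean of two replicates) and medium lactate by absorbance per cell, both as ratio to non-targeting siRNA, also grouped into fold-change classes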", "scale": "cell gain with vemurafenib: higher = more cell gain than with non-targeting siRNA; lactate per cell with vemurafenib: higher = more lactate made per cell", "rule for the call": "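Enhancement is called by pairing each knock-down's vehicle-arm and drug-arm fold-change classes for viability or glycolysis; which class combinations qualify is not given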", "calls": "active = enhances vemurafenib effect; inactive = no enhancement seen", "note": "Here is an unselected part of about 18,000 deposited reagents. 790 of them (4.4%) were called active. 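Calls rest on a combination of fold-change classes in drug and vehicle arms, not all shown here.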 No sequences are given here."}
{"gene": "TTLL11", "cell gain with vemurafenib": 0.62, "lactate per cell with vemurafenib": 0.84, "call": "inactive"}
{"gene": "DNASE2B", "cell gain with vemurafenib": 0.8, "lactate per cell with vemurafenib": 0.31, "call": "inactive"}
{"gene": "AMY1B", "cell gain with vemurafenib": 0.49, "lactate per cell with vemurafenib": 0.84, "call": "inactive"}
{"gene": "TSR2", "cell gain with vemurafenib": 0.27, "lactate per cell with vemurafenib": 1.63, "call": "inactive"}
{"gene": "GMPR2", "cell gain with vemurafenib": 0.4, "lactate per cell with vemurafenib": 1.65, "call": "inactive"}
{"gene": "ADGRF2P", "cell gain with vemurafenib": 0.26, "lactate per cell with vemurafenib": 1.18, "call": "inactive"}
{"gene": "CTDSPL2", "cell gain with vemurafenib": 0.54, "lactate per cell with vemurafenib": 1.4, "call": "inactive"}
{"gene": "MAP7", "cell gain with vemurafenib": 0.47, "lactate per cell with vemurafenib": 1.36, "call": "inactive"}
{"gene": "TSPAN1", "cell gain with vemurafenib": 0.5, "lactate per cell with vemurafenib": 1.44, "call": "inactive"}
{"gene": "POC1A", "cell gain with vemurafenib": 0.57, "lactate per cell with vemurafenib": 0.73, "call": "inactive"}
{"gene": "SP5", "cell gain with vemurafenib": 0.76, "lactate per cell with vemurafenib": 0.7, "call": "inactive"}
{"gene": "SNRPN", "cell gain with vemurafenib": 0.82, "lactate per cell with vemurafenib": 0.64, "call": "inactive"}
{"gene": "RASSF10", "cell gain with vemurafenib": 1.09, "lactate per cell with vemurafenib": 1.12, "call": "inactive"}
{"gene": "SRPX2", "cell gain with vemurafenib": 1.07, "lactate per cell with vemurafenib": 1.02, "call": "inactive"}
{"gene": "STUM", "cell gain with vemurafenib": 0.06, "lactate per cell with vemurafenib": 1.89, "call": "inactive"}
{"gene": "LRRC15", "cell gain with vemurafenib": 0.4, "lactate per cell with vemurafenib": 1.36, "call": "inactive"}

Copied from the list.
GMPR2, cell gain with vemurafenib = 0.4
Entry of AMY1B in “cell gain with vemurafenib”: 0.49

Continued.
{"gene": "SLC25A12", "cell gain with vemurafenib": 0.73, "lactate per cell with vemurafenib": 0.52, "call": "inactive"}
{"gene": "INTS1", "cell gain with vemurafenib": 0.06, "lactate per cell with vemurafenib": 1.73, "call": "inactive"}
{"gene": "SLC22A24", "cell gain with vemurafenib": 0.15, "lactate per cell with vemurafenib": 1.48, "call": "inactive"}
{"gene": "RAB36", "cell gain with vemurafenib": 0.31, "lactate per cell with vemurafenib": 1.34, "call": "inactive"}
{"gene": "RPN1", "cell gain with vemurafenib": 0.22, "lactate per cell with vemurafenib": 1.82, "call": "inactive"}
{"gene": "AVPR1A", "cell gain with vemurafenib": 0.55, "lactate per cell with vemurafenib": 0.61, "call": "inactive"}
{"gene": "EZHIP", "cell gain with vemurafenib": 0.75, "lactate per cell with vemurafenib": 1.43, "call": "inactive"}
{"gene": "EPB41L5", "cell gain with vemurafenib": 0.83, "lactate per cell with vemurafenib": 0.88, "call": "inactive"}
{"gene": "PRKAB1", "cell gain with vemurafenib": 0.45, "lactate per cell with vemurafenib": 0.9, "call": "inactive"}
{"gene": "KCNH6", "cell gain with vemurafenib": 0.37, "lactate per cell with vemurafenib": 0.7, "call": "inactive"}
{"gene": "MDFI", "cell gain with vemurafenib": 0.35, "lactate per cell with vemurafenib": 1.45, "call": "inactive"}
